The data set can be described thus: general procedure: peptide synthesis; WSC·HCl/HOBt. The conditions noted are these: late stage modification step.

D-Pen-N-hexanoate-cRGDfK had a step yield (head-to-tail ring, sequence written open) of 30%.
In the case of “TMEC-[N-hexanoate-c(Arg-Gly-Asp-D-Phe-Lys)]2”, the step yield was 25%.

The record behind these values is patent US20120065367A1 (priority 2009, published 2012).
